Assay results as given in publication PMC5722525.
No constants are given. Whether binding was seen depends on the method and setting. Binding seen in cells or lysates may run through a third protein. Some entries that bind do so weakly or less than the wild type.

By UniProt entry, the sequences of proteins in these tests, tags left out.
UniProt Q9WV60: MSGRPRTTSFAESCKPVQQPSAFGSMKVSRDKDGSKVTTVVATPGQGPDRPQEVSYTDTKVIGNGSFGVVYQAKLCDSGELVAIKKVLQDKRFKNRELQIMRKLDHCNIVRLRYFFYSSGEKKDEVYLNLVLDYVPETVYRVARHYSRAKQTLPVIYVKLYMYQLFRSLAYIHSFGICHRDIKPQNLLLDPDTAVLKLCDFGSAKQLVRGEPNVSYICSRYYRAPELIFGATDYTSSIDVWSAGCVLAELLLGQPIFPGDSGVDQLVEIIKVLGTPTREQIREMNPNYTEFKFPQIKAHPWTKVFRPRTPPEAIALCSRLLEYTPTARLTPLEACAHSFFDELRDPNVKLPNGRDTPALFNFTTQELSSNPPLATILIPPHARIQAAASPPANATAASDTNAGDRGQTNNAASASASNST

Target: phosphorylated Gsk3β (mouse (endogenous in mouse oocytes)) (UniProt Q9WV60)
Experiment: co-IP; p-Akt or p-Gsk3β antibody as bait, mouse oocyte lysate; blot with Pnma5 or p-Pnma5 antibodies (Figure 7B)

B1: phosphorylated Pnma5 (phospho-Thr553) (protein, UniProt Q5DTT8 1-618)
chain: MAVALLDDWCKGMDLDPKKAVLIVGIPVQYTEAAINDALKEGLPPLCAYKVIGRMFRREDEAKAVLIELPEVVDYTMMPTHIPAEGGAWEVVVKPRSPDDEFMNKLIYFLRDEGRRIVDVAKALGFSTVPTGKIELKNLDQDKPKGLKSLCNNSTCYKKLKVFSGSPFPGPGEESFETWLEEVTELMQLWQVSEREKKQCLLESLRGSALSIMQALWTSNDSLTVEQCLKALKHIFGNKEDSKVLQFRFLQSSQKPAEKVSDYLLRLEPLLQKAVQQSPLSAHSADSIRLKHVLSQVSMTTGLRGKLSLLDQQGCPPTFLELMKLTRDEEEWESTVVVEEQEQVRRDSSACEAANEVVTQAEDSREVSTQTTGEEMTSVKRRRLLWRHSAGEEGQRKESGFWAESEPDEQKPYVRAQESGNERGAWAVSHPNPKEIEAQDSQEFLPVAGNRDTLTKSWGSPDKGTGDMSVAEGQQGQGKAPNFLLARNDPNKQEQIPHSSVTTKWQDRGECQRLKWGASMITRPQGNPDRSWDTSGSQDGEDGCSELRMPTGTEAAQGVEEPATGLSWAEDTSAWEQARLGRETVPRRGGRRIQPVFRIIYTALGEPHEGSTLESFRE
modifications: phosphothreonine at 553 (Thr553)
- binding: binds

B2: Pnma5 (paraneoplastic antigen MA family member 5), total Pnma5 (protein, UniProt Q5DTT8 1-618)
chain: MAVALLDDWCKGMDLDPKKAVLIVGIPVQYTEAAINDALKEGLPPLCAYKVIGRMFRREDEAKAVLIELPEVVDYTMMPTHIPAEGGAWEVVVKPRSPDDEFMNKLIYFLRDEGRRIVDVAKALGFSTVPTGKIELKNLDQDKPKGLKSLCNNSTCYKKLKVFSGSPFPGPGEESFETWLEEVTELMQLWQVSEREKKQCLLESLRGSALSIMQALWTSNDSLTVEQCLKALKHIFGNKEDSKVLQFRFLQSSQKPAEKVSDYLLRLEPLLQKAVQQSPLSAHSADSIRLKHVLSQVSMTTGLRGKLSLLDQQGCPPTFLELMKLTRDEEEWESTVVVEEQEQVRRDSSACEAANEVVTQAEDSREVSTQTTGEEMTSVKRRRLLWRHSAGEEGQRKESGFWAESEPDEQKPYVRAQESGNERGAWAVSHPNPKEIEAQDSQEFLPVAGNRDTLTKSWGSPDKGTGDMSVAEGQQGQGKAPNFLLARNDPNKQEQIPHSSVTTKWQDRGECQRLKWGASMITRPQGNPDRSWDTSGSQDGEDGCSELRMPTGTEAAQGVEEPATGLSWAEDTSAWEQARLGRETVPRRGGRRIQPVFRIIYTALGEPHEGSTLESFRE
- binding: binds weakly
